Results reported in patent publication US6749856B1, “Mucosal cytotoxic T lymphocyte responses” (priority 1997, dated 2004).
Entries after “also recorded” stand apart in the source; their conditions may differ.

Experiments:
[1] = test system: P18IIIB-I10 peptide-pulsed 51Cr labeled P815 targets; assay: CTL 51Cr release assay with PP, LP or SP effector cells of immunized mice; assay type: in vivo, BALB/c mice; conditions: for P18-specific CTL response in intestinal PP and spleen: weekly for four weeks, day 35 or six months
[2] = test system: 15-12 cells (BALB/c 3T3 fibroblasts transfected with HIV-1IIIB gp160); assay: CTL 51Cr release assay on targets endogenously expressing HIV-1 gp160; assay type: in vivo, BALB/c mice; conditions: CTL elicited by IR immunization
Description: Three different cell lines were used as target cells: 15-12 cells, 3T3 18 Neo BALB/c cells and P815 cells. 15-12 cells are BALB/c 3T3 fibroblasts transfected with a vector encoding HIV-1 gp160 (Takahashi et al. Proc. Natl. Acad. Sci. USA 8:3105 (1988)); 3T3 18 Neo BALB/c cells are BALB/c 3T3 fibroblasts transfected with an expression vector containing a Neor gene but no gp160 gene; and P815 cells are untransfected cells that present antigenic peptides added to the culture. CTL lysis of gp160 expressing 15-12 cells (closed squares in right panels) was compared to that of control gp160 non-expressing 3T3 18 Neo BALB/c cells (open diamonds right panels). […] The percent specific 51Cr release was calculated as described above. […]
Cytotoxic T lvmphocyte assay Immune cells from SP, PP, LP were cultured at 5×10^6 per/milliliter in 24-well culture plates in complete T cell medium (CTM): RPMI 1640 containing 10% FBS, 2 mM L-glutamine, penicillin (100 U/ml), streptomycin (100 μg/ml), and 5×10^−5 M 2-mercaptoethanol. […] Cytolytic activity of CTL lines was measured by a 4-hour assay with ^51Cr labeled targets. […] The percent specific ^51Cr release was calculated as 100× (experimental release-spontaneous release)/(Maximum release-spontaneous release). Maximum release was determined from supernatants of cells that were lysed by addition of 5% Triton-X 100. […]

[3] = test system: vaccinia virus expressing β-galactosidase (vSC8); design: species or system BALB/c mice; conditions: mouse, in vivo
[4] = test system: vaccinia virus expressing gp160 IIIB (vPE16); design: species or system BALB/c mice; conditions: mouse, in vivo
[5] = test system: mucosal P18-specific CD8+ CTL; assay: IFNγ production by mucosal CD8+ CTL after stimulation with specific peptide in vitro; assay type: cell-based, BALB/c mice; conditions: stimulation with specific peptide in vitro for 48 hours
Description: The difference may reflect a higher affinity of the minimal 10-mer P18IIIB-I10, compared to P18MN-T10, for H-2D^d (Takahashi et al., Science 246:118-121 (1989); Takeshita et al., J. Immunol. 154:1973-1986 (1995)). […] On the basis of these observations, the PCLUS3-18IIIB construct was used in the protection experiments described below.

[6] = IR, 50 μg/mouse x4 with CT 1 μg/mouse, day 35

Sequence: KQIINMWQEVGKAMYAPPISGQIRRIHIGPGRAFYTTKN [PCLUS3-18MN]
- level of CTL response compared with IR immunization with PCLUS3-18IIIB ([1]; IR with CT): significantly lower
- P18-specific CTL response in intestinal PP and spleen ([1]; IR with CT): induces a P18-specific CTL response

Sequence: KQIINMWQEVGKAMYAPPISGQIRRIQRGPGRAFVTIGK [PCLUS3-18IIIB]
- level of splenic CTL activity, IR versus IN immunization ([1]; 50 μg/mouse x4, SP, six months after first dose): higher than that induced by IN immunization
- CTL activity after immunization via all three mucosal routes (IR, IN, IG) ([1]; 50 μg/mouse x4, day 35): detected in both PP and SP
- level of CTL activity in PP, IR versus other mucosal routes (IN and IG) ([1]; 50 μg/mouse x4, day 35): significantly higher
- level of CTL activity in SP, IR versus other mucosal routes (IN and IG) ([1]; 50 μg/mouse x4, day 35): much higher
- CTL activity after systemic immunization (SC) ([1]; 50 μg/mouse x4, day 35, PP and SP): only resulted in significant CTL activity in SP
- P18-specific CTL response in intestinal PP and spleen ([1]; IR with CT): induces a P18-specific CTL response
- CTL response, peptide alone ([1]; IR, 50 μg/mouse x4, no adjuvant or cytokine, day 35, PP, LP, SP): induced a significant response
- CTL activity in SP, PP and LP cells from IFNγ−/− mice [1, 6]: lack of detectable CTL activity
- CTL activity in SP, PP and LP cells from wild-type BALB/c mice [1, 6]: potent CTL activity
- time after immunization at which antigen-specific CTL were still detected in PP, LP and SP ([1]; IR, 4 doses 50 μg/mouse, days 0, 7, 14, 21): at least 6 months
- CTL response with co-administration of CT, relative to peptide alone ([1]; IR, peptide in combination with CT, day 35, PP, LP, SP): enhanced
- induction of CTL after systemic immunization ([1]; s.c. in incomplete Freund's adjuvant, PP, LP, SP): induced CTL in the spleen but not in the mucosal immune system
- killing of 15-12 gp160 IIIB-transfected fibroblast targets [2]: killed these targets
- protection against IR challenge with vSC8 [3]: did not protect
- protection against IR challenge with vPE16 6 months after immunization [4]: exhibit protection
- protection against IR challenge with vPE16, IR immunization [4]: protected mice; also recorded: did protect
- protection against mucosal challenge with vPE16, SC immunization [4]: did not protect
- reduction in viral pfu [4]: 4 log
- reduction in viral pfu in ovaries compared to unimmunized animals [4]: 4.5 log
- production of IFNγ by mucosal specific CD8+ CTL, P18IIIB-specific compared to P18-MN-specific [5]: much higher production of IFNγ
